No constants are given. Whether binding was seen depends on the method and setting. Some results given as binding are weak or reduced against the parent protein; the word gives no strength.
What was measured:
[1] = target: BCMA on the surface of Raji cells (UniProt Q02223); test: FACS on Raji cells, scFv at 13.2 ug/mL, detected with anti-HA-PE (FIG. 1)
[2] = target: BCMA (antigen adsorbed onto the immunotube for panning) (UniProt Q02223); test: phage display panning on BCMA adsorbed to an immunotube, three or four rounds

The chains behind the UniProt entries cited, without tags or fusion partners. Where a name states a change or a piece, a line headed by the entry shows the natural chain unless it says otherwise. Residues count along the entry.
UniProt Q02223: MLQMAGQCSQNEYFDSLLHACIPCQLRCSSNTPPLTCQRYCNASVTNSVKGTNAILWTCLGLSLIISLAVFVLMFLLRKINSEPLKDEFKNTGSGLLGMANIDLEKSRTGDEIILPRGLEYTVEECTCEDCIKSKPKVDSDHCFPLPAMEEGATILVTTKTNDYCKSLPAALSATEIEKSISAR
BCMA (antigen adsorbed onto the immunotube for panning): residues 1-54 of Q02223

binding [1]: binds
binding [2]: binds
B1: OPAL B10 anti-BCMA scFv antibody (scFv, not shown: large carriers)
scFv: EVQLLESGGGLVQPGGSLRLSCAASGFTFSDYYMSWVRLAPGKGLEWVSAISHSSGNTYYADSVKGRFTISRDNSKNTLYLQMNSLRAEDTAVYYCAKNNWGFDYWGQGTLVTVSSGGGGSGGGGSGGGGSQSVLTQPPSASGTPGQRVTISCTGSSSNIGSNDVTWYQQLPGTAPKLLIYSDSKRPSGVPDRFSGSKSGTSASLAISGLRSEDEADYYCAAWDASLSGYVFGGGTKLTVL

Source: patent US20230167184A1
